# Laboratory results as given in PubChem BioAssay AID1671190 (National Center for Advancing Translational Sciences (NCATS), 2021).
# By UniProt entry, the sequences of proteins in these tests, tags left out. Where a name states a change or a piece, a line headed by the entry shows the natural chain unless it says otherwise.
# UniProt P18054: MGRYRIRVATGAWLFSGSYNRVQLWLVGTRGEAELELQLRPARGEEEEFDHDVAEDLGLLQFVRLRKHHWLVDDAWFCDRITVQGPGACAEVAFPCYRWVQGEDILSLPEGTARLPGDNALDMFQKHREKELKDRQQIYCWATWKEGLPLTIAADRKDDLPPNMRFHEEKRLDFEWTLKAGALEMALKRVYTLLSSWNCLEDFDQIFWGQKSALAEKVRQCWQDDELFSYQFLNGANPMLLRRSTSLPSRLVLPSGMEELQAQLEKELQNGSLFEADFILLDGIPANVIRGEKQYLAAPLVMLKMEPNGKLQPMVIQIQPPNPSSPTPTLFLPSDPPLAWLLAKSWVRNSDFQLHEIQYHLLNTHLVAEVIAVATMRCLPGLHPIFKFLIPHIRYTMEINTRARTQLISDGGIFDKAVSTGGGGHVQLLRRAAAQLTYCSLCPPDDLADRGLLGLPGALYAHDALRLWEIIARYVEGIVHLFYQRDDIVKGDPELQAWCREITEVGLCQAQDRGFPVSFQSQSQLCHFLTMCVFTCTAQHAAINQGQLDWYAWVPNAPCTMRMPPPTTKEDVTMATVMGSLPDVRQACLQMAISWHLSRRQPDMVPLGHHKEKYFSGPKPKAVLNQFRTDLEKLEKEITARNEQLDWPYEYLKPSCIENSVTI
# Where “and” joins values, the source holds several entries; their conditions need not be identical. Equal entries are not always repeated. In all, about 580,000 compounds went through this assay and about 6,100 (1.1%) were called active. The inconclusive results got no clear call from the source; some entries with a clear call stand among them for comparison. Calls follow the shape of the dose curve; as a rule, active = well fitted inhibition curve with a large enough effect; inconclusive = small, poorly fitted or top-dose-only effect, or another doubt; inactive = no such curve, though single readings can be large or run the other way. Where the call is inconclusive, the potency comes from a doubtful curve fit.
# Target: Polyunsaturated fatty acid lipoxygenase ALOX12 (Homo sapiens) (UniProt P18054)
# Experiment: Primary qHTS assay for inhibitors of human arachidonate 12S-lipoxygenase (ALOX12): Round 2
# Details: purified 12hLO, xylenol orange hydroperoxide absorbance; activity change, negative = inhibition: at 108 µM (top of the series) unless noted
# How it was run: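 Purified human 12hLO at 150 nM in 25 mM Hepes, 0.01% Triton X-100, pH 7.0, preincubated 15 min at room temperature with compound. Reaction started with 40 uM arachidonic acid, 30 min at room temperature. Hydroperoxide measured by Fe-xylenol orange, 573/405 nm absorbance ratio.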
# % is scaled to controls: 0 for no effect and ±100 for the full control effect; potency is read from the fitted curve at half-maximal effect.
Structure (SMILES),Potency,"activity change, negative = inhibition"
Cc1cccc(C)c1NC(=S)N/N=C/c1ccc(OCCC(C)C)cc1,"inconclusive: 17.8 µM [inhibitor, partial curve, poor fit]",–
O=C(Nc1ccc(Cl)cc1)N1CCN(c2ccccc2)CC1,"inconclusive: 44.7 µM [inhibitor, partial curve, poor fit]",–
CCN(C[C@H]1N[C@@](Cc2ccccc2)(C(=O)OC)[C@H]2C(=O)N(C)C(=O)[C@@H]12)C(=O)COc1ccccc1,"inconclusive: 79.4 µM [inhibitor, single point]",–
Cc1ccc(C(=O)/C=C/c2cn(CN3CCN(C)CC3)c3ccccc23)cc1,"inconclusive: 79.4 µM [inhibitor, partial curve, poor fit]",–
COc1ccc(NC(=O)O[C@@H](C)[C@@H]2CN3CCc4c([nH]c5ccc(-c6ccc(OC)cc6)cc45)[C@@H]3C[C@@H]2N(C)C(=O)Nc2ccc(OC)cc2)cc1,"inconclusive: 126 µM [inhibitor, single point]",–
O=C(COc1ncnc2ccccc12)Nc1ccccc1Cl,"inconclusive: 4.47 µM [inhibitor, full curve, poor fit]",–
COC(=O)c1c(Cc2cc(Cl)ccc2Cl)c[nH]c1C,"inconclusive: 17.8 µM [inhibitor, partial curve, poor fit]",–
O=C(Nc1ccc(OCc2ccccc2)cc1)c1ccc2ccccc2c1,–,inactive: -56.9%
COc1cc(CCC(=O)N2CCc3n[nH]c(=O)n3CC2)on1,–,inactive: 4.64%
O=C(CC[C@H]1NC(=O)c2ccccc2NC1=O)NCCCc1nc2ccccc2[nH]1,–,inactive: 24.4%
CNC[C@H]1Oc2c(NS(=O)(=O)c3cccs3)cccc2C(=O)N([C@H](C)CO)C[C@@H]1C,"inconclusive: 100 µM [inhibitor, single point]",–
COc1ccc2nc(NC(=O)c3nc(S(=O)(=O)Cc4cccc(C)c4)ncc3Cl)sc2c1,–,inactive: 3.83%
COc1cccc(CNC(=O)Nc2cccc(-c3nnc(Cc4ccc5c(c4)OCO5)o3)c2)c1,–,inactive: -9.56%
COc1cc(C(=O)Nc2nnc(C(C)(C)C)s2)c([N+](=O)[O-])cc1OC,"inconclusive: 70.8 µM [inhibitor, partial curve, poor fit]",–
COc1ccc(NCc2ccco2)cc1,"inconclusive: 100 µM [inhibitor, partial curve, poor fit]",–
O=C(O)/C=C(/CC(=O)O)C(=O)O,"inconclusive: 17.8 µM [inhibitor, full curve]",–
Cc1ccc2[nH]c(C(=O)NCc3ccc(C(=O)N4CCN(C)CC4)cc3)cc2c1,–,inactive: -22.5%
CCC(=O)O[C@H](CC(=O)O)C[N+](C)(C)C,"inconclusive: 28.2 µM [inhibitor, partial curve, poor fit]",–
Cc1cccc(NC(=S)N/N=C/c2ccc(Cl)c([N+](=O)[O-])c2)c1,–,inactive: -14.8%
CC(Nc1cccc2ccccc12)C(=O)N/N=C/c1ccc([N+](=O)[O-])cc1 (centres undefined),"inconclusive: 50.1 µM [inhibitor, partial curve, poor fit]",–
Cc1ccc(C(=O)NC(Nc2ccc(C)cc2C)C(Cl)(Cl)Cl)cc1 (centres undefined),–,inactive: -29.5%
Cc1cc(NC(=O)C2CCN(S(=O)(=O)c3ccc4[nH]c(=O)oc4c3)CC2)ccc1Br,"inconclusive: 112 µM [inhibitor, single point]",–

Structure (SMILES),Potency,"activity change, negative = inhibition"
Cc1ccc(CN2CCn3c(nn(-c4ccc([N+](=O)[O-])cc4)c3=O)C2)cc1,"inconclusive: 31.6 µM [inhibitor, full curve]",–
CC1=C(C(=O)OCc2ccccc2)C(c2ccccc2OS(=O)(=O)c2ccc([N+](=O)[O-])cc2)NC(=O)N1CCCC(=O)O (centres undefined),"inconclusive: 50.1 µM [inhibitor, partial curve, poor fit]",–
CN(C(=O)COC(=O)c1cc(NS(=O)(=O)c2cc([N+](=O)[O-])ccc2Cl)ccc1O)C1CCCCC1,"inconclusive: 31.6 µM [inhibitor, partial curve, poor fit]",–
COCCCNCCC(CCC(C)C)c1ccc2c(c1)OCO2 (centres undefined),"inconclusive: 50.1 µM [inhibitor, partial curve, poor fit]",–
O=C1C=Cc2ccccc2/C1=C/N(O)c1ccccc1,"inconclusive: 141 µM [inhibitor, single point]",–
COc1cc2oc3ccc(C#Cc4ccc(N)cc4)cc3c(=O)c2cc1OC,"inconclusive: 89.1 µM [inhibitor, single point]",–
Cn1c(=O)[nH]c(=O)c2c1[nH]c(=S)n2Cc1ccccc1,"inconclusive: 50.1 µM [inhibitor, partial curve, poor fit]",–
CCCCOc1ccc(/C=C/C(=O)Nc2ccc(C(N)=O)cc2)cc1,–,inactive: -24.5%
COC(=O)C1=C(C)N=C2SC=C(CC(=O)NCCOc3ccccc3)N2C1c1cccc(OC)c1 (centres undefined),–,inactive: 71%
CN(c1ccc(F)cc1)S(=O)(=O)c1ccc(Cl)c(C(=O)NCC(c2ccco2)N2CCCCC2)c1 (centres undefined),active: 0.794 µM,–
Cc1ccc(C)c(CSc2nc3ccncc3n2CC(=O)Nc2ccc(N(C)C)cc2)c1,"inconclusive: 50.1 µM [inhibitor, partial curve, poor fit]",–
COc1ccc(N(CC(=O)N2CCN(C)CC2)S(=O)(=O)c2ccccc2)cc1,"inconclusive: 100 µM [inhibitor, partial curve, poor fit]",–
COCCn1c(SCC(=O)c2ccc(F)cc2)nnc1-c1ccc(Cl)cc1,"inconclusive: 31.6 µM [inhibitor, partial curve, poor fit]",–
CN(Cc1cn(C)nc1-c1ccccc1F)CC1CCN(Cc2ccccc2)CC1,"inconclusive: 39.8 µM [inhibitor, partial curve]",–
COC(=O)C1=C(CN2CCc3ccccc32)NC(=O)NC1c1cc(C)ccc1C (centres undefined),"inconclusive: 12.6 µM [inhibitor, full curve, poor fit]",–
CCOC(=O)c1ccc2c(c1)n(CC)c(C)[n+]2CC,"inconclusive: 31.6 µM [inhibitor, single point]",–
CCN(CC)CCCNC(=O)c1ccc(Cl)c(S(=O)(=O)Nc2ccccc2OC)c1,"inconclusive: 141 µM [inhibitor, single point]",–
Cc1cc(C)c(NC(=O)Nc2ccc3snnc3c2)c(C)c1,"inconclusive: 126 µM [inhibitor, partial curve, poor fit]",–
C#CCN(CCC(=O)OC)C(C)C,"inconclusive: 50.1 µM [inhibitor, partial curve, poor fit]",–
COCCNc1nc2cc(C(=O)N3CC[C@H]4CNC[C@H]43)ccc2n1C,–,inactive: 28.7%
COc1ccc(-c2cc(N3CCC(NC(=O)c4ccc5nc[nH]c5c4)CC3)n[nH]2)cc1,–,inactive: 66.2%
CCOC(=O)c1ccc(NC(=O)COc2ccccc2CNCCc2ccccc2)cc1,"inconclusive: 56.2 µM [inhibitor, partial curve, poor fit]",–

Structure (SMILES),Potency,"activity change, negative = inhibition"
Cc1ccc(NC(=O)CSc2nc(-c3ccco3)nc3cc(=O)[nH]n23)cc1C,–,inactive: -0.314%
O=C(CN1CCN(C2CCCCC2)CC1)NCCC1=CCCCC1,"inconclusive: 7.94 µM [inhibitor, full curve]",–
O=C(Cn1nc(Br)nc1Br)c1ccc(Cl)cc1,"inconclusive: 44.7 µM [inhibitor, partial curve, poor fit]",–
CCN(CC)CCOC(=O)C1(c2ccc([N+](=O)[O-])cc2)CCCC1,"inconclusive: 31.6 µM [inhibitor, single point] and inconclusive: 79.4 µM [inhibitor, single point]",–
COc1ccccc1CNC(=O)c1c(C)sc2ccn(Cc3ccc(F)cc3)c(=O)c12,"inconclusive: 79.4 µM [inhibitor, single point]",–
CN(Cc1ccc(Cl)cc1Cl)C(=O)C1CC(=O)N(Cc2ccco2)C1 (centres undefined),"inconclusive: 50.1 µM [inhibitor, partial curve, poor fit]",–
N#C/C(=C/C1=C(N2CCOCC2)C(=C/c2ccc(Cl)cc2)/CC1)C(=O)Nc1ccccc1F,"inconclusive: 89.1 µM [inhibitor, single point]",–
CC(CCc1ccccc1)NC(=O)C(C)O (centres undefined),–,inactive: -8.4%
Cc1cc(OC(=O)c2c(C)cc(O)cc2O)cc(O)c1C(=O)O,"inconclusive: 50.1 µM [inhibitor, partial curve, poor fit]",–
Cc1ccc(-c2noc(-c3ccccc3C(=O)N3CCN(C)CC3)n2)cc1,–,inactive: -3.94%
CCn1cc(SCC(=O)NCc2ccc3c(c2)OCO3)c2ccccc21,"inconclusive: 126 µM [inhibitor, single point]",–
NC(=O)[C@H]1CC2(CC(c3cccc(NC(=O)CC(c4ccccc4)c4ccccc4)c3)=NO2)CN1C(=O)c1ccccc1C(=O)c1ccccc1 (some centres undefined),"inconclusive: 20 µM [inhibitor, full curve, poor fit]",–
CC1CCCC(C)N1C(=O)CSc1nnc(COc2cccc3cccnc23)o1 (centres undefined),–,inactive: -7.06%
CCOC(=O)C1=CN(CC(=O)NC(C)c2ccccc2)S(=O)(=O)N=C1C (centres undefined),–,inactive: 25.9%
COc1cccc(/C=N/NC(N)=S)c1OCc1ccccc1Cl,active: 28.2 µM,–
O=C(NCCCCNC(=O)c1ccccn1)c1ccccn1,–,inactive: 0.963%
C=CCSc1nc2ccccc2n1C(=O)/C=C/c1ccc(OC)c(OC)c1,–,inactive: -4.1%
CC(C)(C)c1ccc(C(CC(=O)O)NC(=O)c2ccc(-c3ccccc3)cc2)cc1 (centres undefined),"inconclusive: 56.2 µM [inhibitor, single point]",–
OC(c1ccccc1)(c1nc(-c2ccc3ccccc3c2)cs1)C(F)(F)F (centres undefined),"inconclusive: 44.7 µM [inhibitor, partial curve, poor fit]",–
CCCCCSc1nc2c(c(=O)[nH]c(=O)n2C)n1CC(O)COc1ccc(CC)cc1 (centres undefined),"inconclusive: 39.8 µM [inhibitor, partial curve, poor fit]",–

# Arranged by molar mass (high to low): some entries from above.
Structure (SMILES),Potency,"activity change, negative = inhibition"
NC(=O)[C@H]1CC2(CC(c3cccc(NC(=O)CC(c4ccccc4)c4ccccc4)c3)=NO2)CN1C(=O)c1ccccc1C(=O)c1ccccc1 (some centres undefined),"inconclusive: 20 µM [inhibitor, full curve, poor fit]",–
Cc1ccc(NC(=O)CSc2nc(-c3ccco3)nc3cc(=O)[nH]n23)cc1C,–,inactive: -0.314%
O=C(NCCCCNC(=O)c1ccccn1)c1ccccn1,–,inactive: 0.963%
